Some of the results follow. These are further read-outs of the screen, such as a control signal, another cell line or another target. No call is given for them. Most of these compounds were active or inconclusive in the main read-out, so they are no random draw. Words in brackets tell the shape of the fitted curve; partial curves, single points and poor fits give uncertain potencies.
assay: Cell signaling CRE-BLA (Fsk stim); conditions: CHO CRE-bla reporter (cAMP response element driving beta-lactamase), forskolin EC10, beta-lactamase ratio; measured here: 460 nm blue channel
Outline: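 CHO CRE-bla cells, overnight plating in Opti-MEM with 0.5% dialyzed FBS; cpd titration + EC10 NKH 477, 3 h 37 °C; CCF4 2 h RT; ex 405/em 460 vs 530 ratio → %Activity, AC50.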

SMILES | AC50
Cc1cc(C)n(-c2nc(SCC(=O)Nc3nccs3)c3c4c(sc3n2)COC(C)(C)C4)n1 | 2.51 µM [rising, single point]
COc1ccc(-c2csc(C3=C(O)CN(Cc4ccc(S(N)(=O)=O)cc4)C3=N)n2)cc1OC | 0.0794 µM [falling, partial curve, poor fit]
CCOC(=O)N1CCC(Nc2ccc3nnc(-c4ccccc4)n3n2)CC1 | 10 µM [rising, partial curve]
COC(=O)c1ccc(-c2nn(C)c(=O)c3ccccc23)cc1 | 5.01 µM [rising, partial curve]
O=C(C1Cc2ccccc2CN1S(=O)(=O)c1cccs1)N1CCCCCC1 (configuration not stated) | 0.00316 µM [falling, full curve, poor fit]
COc1ccc(C(=O)NCC(=O)OC2CCCCC2=O)cc1 (configuration not stated) | 5.01 µM [falling, partial curve]
COc1ccc(-n2c(=O)c(C)nc3cnc(N4CCOCC4)nc32)cc1 | 12.6 µM [rising, partial curve]
CN1CC(=O)NC1=NC(=O)c1ccc(Cl)c(S(=O)(=O)N2CCCCCC2)c1 | 5.01 µM [falling, single point]
CCN(CC)c1ccc2c(c1)C(=O)N(C)C2=O | 10 µM [rising, partial curve]
Clc1ccc(Cc2nn3c(Cn4nnc5ccccc54)nnc3s2)cc1 | 12.6 µM [rising, single point]
CC(C)c1ccc2c([Si](C)(C)C)c3c(nc2c1)-c1cccc(=O)n1C3 | 0.0631 µM [rising, full curve, poor fit]
Nc1cccc(-c2nc3ccc(N)cc3s2)c1 | 15.8 µM [rising, single point]
O=C(O)CCCCCC[C@@H]1C(=O)NC(=O)N1CC[C@@H](O)C1CCCCC1 | 12.6 µM [rising, partial curve]
CCOC(=O)c1c(N)sc(C(=O)N2CCCCCC2)c1C | 10 µM [rising, partial curve]
CC1=C(C)CS(=O)N(S(=O)(=O)c2ccc(Cl)cc2)C1 (configuration not stated) | 10 µM [falling, partial curve]
O=C(c1cc(S(=O)(=O)N2CCCCC2)ccc1F)N1CCCCC1 | 5.01 µM [falling, single point]
CN1/C(=N\O)c2cccc3cccc1c23 | 12.6 µM [rising, partial curve]
Cc1ccc(-n2c(SCC(=O)NCc3ccco3)nnc2-c2cccnc2)c(C)c1 | 12.6 µM [falling, single point]
O=C(Nc1ccc(F)cc1)Nc1ccc(Cl)cn1 | 12.6 µM [falling, partial curve]
CCOC(=O)c1csc(NC(=O)CSc2nnnn2CC)n1 | 5.01 µM [rising, single point]
CCCC[C@H]1C[C@@H]1[C@@H]1N(C(C)=O)[C@H](c2cccc(OC)c2)CC12CC2 | 25.1 µM [rising, single point]
Cc1ccc(-c2c(C#N)c(N)nc3c2CCCCC3)o1 | 3.16 µM [rising, full curve]
COc1ccc(N2CCN(C(=O)CSc3nc4cc(OC)c(OC)cc4cc3C#N)CC2)cc1 | 5.01 µM [rising, partial curve]

SMILES | AC50
O=C(NCCN1CCN(c2ccccc2)CC1)C1CCN(S(=O)(=O)c2cccs2)CC1 | 0.126 µM [falling, partial curve]
Nc1[nH]ncc1C(=O)Nc1cccc(C(F)(F)F)c1 | 10 µM [falling, partial curve, poor fit]
CCOC(=O)c1c(NC(=O)CSc2nnc(C)s2)sc2c1CCN(C)C2 | 10 µM [rising, partial curve]
O=C(Nc1ccc(F)cc1F)c1cc(-c2ccco2)on1 | 0.00398 µM [falling, full curve, poor fit]
CCc1c(C)nc(SCC(=O)Nc2cccc(Br)c2)[nH]c1=O | 10 µM [rising, partial curve]
CCOC(=O)CNS(=O)(=O)c1ccc(S(=O)(=O)N2CCCC2)cc1 | 2.51 µM [falling, partial curve]
COc1ccc(N2CCN(C(=O)c3ccc(C)cc3Cl)CC2)cc1 | 0.00316 µM [rising, full curve, poor fit]
COc1ccc(Oc2ncc3nc(-c4ccc(OC)cc4)c(=O)n(CCC#N)c3n2)cc1 | 7.94 µM [rising, partial curve]
CC(C)c1nc(N2CCN(C(=O)c3ccccc3)CC2)c(C#N)c2c1COC(C)(C)C2 | 2 µM [rising, full curve]
CN(C/C(O)=C(\C#N)c1ccccc1)C1CCCCC1 | 0.00794 µM [rising, full curve, poor fit]
O=C(CC1SC(=NC2CCCCC2)NC1=O)Nc1ccccc1 (configuration not stated) | 3.98 µM [rising, single point]
CC1=C(C(=O)Nc2ccccc2)C(c2ccc(C)o2)n2c(s/c(=C\c3ccco3)c2=O)=N1 (configuration not stated) | 7.94 µM [falling, partial curve]
Cc1ccc(Cl)cc1-n1c(=O)cc(N2CCN(C(=O)c3ccco3)CC2)[nH]c1=O | 1 µM [falling, partial curve]
CN(CC(=O)Nc1ccc(Cl)cc1)CC(=O)Nc1cc(Cl)ccc1C#N | 12.6 µM [falling, partial curve]
CCOC(=O)CC(=O)CSc1nc(-c2cccnc2)ccc1C#N | 12.6 µM [rising, partial curve]
COc1cccc(Nc2ncc3nc(-c4cc(F)cc(F)c4)c(=O)n(CCC#N)c3n2)c1 | 1.58 µM [rising, full curve]
Cn1cc(C(=O)N2CCN(C(=O)c3ccco3)CC2)c2c3ccccc3n(C)c2c1=O | 0.1 µM [falling, full curve]
CCOC(=O)C1=C(c2ccccc2)N2CCS(=O)(=O)N=C2S1 | 5.01 µM [rising, partial curve]
CCOC(=O)Cn1nnnc1C(C(C)C)N(Cc1cc2c(C)cc(C)cc2[nH]c1=O)C1CCCC1 (configuration not stated) | 3.98 µM [rising, partial curve]
O=S(=O)(Cc1ccccc1)N1CCCC1 | 5.01 µM [rising, single point]
CCOC(=O)N1CCC(c2[nH][nH]c(=O)c2C)CC1 | 0.00398 µM [falling, full curve, poor fit]
Cc1c(C(=O)NCCN2CCOCC2)sc2nc(-c3ccc(F)cc3)cn12 | 12.6 µM [rising, single point]
CCc1ccc(NC(=O)Cn2c(=O)n(CCCC(=O)NCc3ccco3)c(=O)c3ccccc32)cc1 | 25.1 µM [rising, single point]

Rewritten in CSV form: entries from further up.
SMILES,AC50
COc1ccc(-n2c(=O)c(C)nc3cnc(N4CCOCC4)nc32)cc1,"12.6 µM [rising, partial curve]"
CC(C)c1ccc2c([Si](C)(C)C)c3c(nc2c1)-c1cccc(=O)n1C3,"0.0631 µM [rising, full curve, poor fit]"
CCOC(=O)Cn1nnnc1C(C(C)C)N(Cc1cc2c(C)cc(C)cc2[nH]c1=O)C1CCCC1 (configuration not stated),"3.98 µM [rising, partial curve]"
O=S(=O)(Cc1ccccc1)N1CCCC1,"5.01 µM [rising, single point]"

Additional entries follow.

SMILES | AC50
Cc1ccc2nc(NCCCN3CCOCC3)c(C=NCCCN3CCOCC3)c(=O)n2c1 | 10 µM [rising, partial curve]
Oc1ccccc1OCc1nc2ccccc2s1 | 0.0794 µM [rising, full curve]
O=C(NCC1CCCO1)C(C(=O)c1ccccc1)n1cc(Cl)ccc1=O (configuration not stated) | 12.6 µM [falling, single point]
CCOC(=O)N1CCC(Nc2ncnc3c2cnn3-c2ccc(C)cc2C)CC1 | 20 µM [falling, single point]
COc1cccc(NC(=O)N2CCC(C(=O)Nc3ccc(C)cc3C)CC2)c1 | 0.0501 µM [falling, full curve]
COc1cc2c(cc1OC)CN(C(=O)CC1CC3CCC1C3)CC2 (configuration not stated) | 3.98 µM [falling, partial curve]
CCn1ccc(C(=O)Nc2ccc(S(=O)(=O)Nc3ccccc3OC)cc2)n1 | 0.501 µM [falling, single point]
O=C(NCC(=O)N(CCc1ccccc1)C(C(=O)NC1CCCC1)c1cccnc1)c1ccco1 (configuration not stated) | 0.126 µM [falling, full curve, poor fit]
Cc1cnc(CNc2nc(-c3cccnc3)nc3ccccc23)cn1 | 12.6 µM [rising, partial curve]
COc1ccc(-c2nc(NC(=O)C3CCN(c4nc5ccccc5o4)CC3)sc2C)cc1 | 12.6 µM [falling, partial curve]
Nc1[nH]nc2nc(N3CCOCC3)nc(-c3ccccc3)c12 | 25.1 µM [rising, single point]
COC(=O)c1[nH]c2ccccc2c1NC(=O)CN1CCCc2ccccc21 | 25.1 µM [rising, single point]
COc1cc(C(=O)NCCc2nc3ccccc3n2C)cc(OC)c1OC | 7.94 µM [rising, partial curve]
C[C@@](N)(C(=O)O)c1ccc(P(=O)(O)O)cc1 | 31.6 µM [falling, single point]
COc1ccc(C(=O)Nc2ccccc2-c2nnn(CC(=O)NCc3ccco3)n2)cc1 | 3.16 µM [rising, single point]
Cc1oc(C(=O)O)cc1COc1ccc2c3c(c(=O)oc2c1C)CCCC3 | 0.316 µM [falling, partial curve, poor fit]
Cc1cccc(C)c1NC(=O)CSCCO | 0.126 µM [falling, single point]
CC(Oc1ccc(Br)cc1)C(=O)N1CCc2ccccc21 (configuration not stated) | 12.6 µM [falling, single point]
CCCn1nc(NS(C)(=O)=O)c2cc3cccc(C)c3nc21 | 3.16 µM [falling, full curve, poor fit]
COc1cccc(Cn2c(=O)c(C)nc3cnc(OC)nc32)c1 | 5.01 µM [rising, full curve]
C#CCN1C(=O)C(O)(CC(=O)c2cccc(OC)c2)c2ccccc21 (configuration not stated) | 0.0794 µM [falling, full curve, poor fit]

— PubChem BioAssay AID662 (National Center for Advancing Translational Sciences (NCATS), 2007)
